These are yes or no findings as the source states them, for the method shown. Binding seen in cells or lysates may run through a third protein. Some entries that bind do so weakly or less than the wild type.

Sequences of proteins named here, by UniProt entry; tags and fusion partners are left off. Residues count along the entry.
HAF-NS2 (HCV NS2 of JFH1ad_HAF-NS2EI3, carrying a HA-Flag epitope sequence) (Hepatitis C virus genotype 2a (JFH1)) (Q99IB8, residues 814-1030): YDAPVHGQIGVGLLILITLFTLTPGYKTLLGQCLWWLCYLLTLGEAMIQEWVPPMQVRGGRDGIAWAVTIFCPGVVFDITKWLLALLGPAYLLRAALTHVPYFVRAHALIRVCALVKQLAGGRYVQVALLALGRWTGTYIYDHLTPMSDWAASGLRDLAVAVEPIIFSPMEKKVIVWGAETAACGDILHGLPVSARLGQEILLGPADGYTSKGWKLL
NS3 (wild type) of JFH1ad_HAF-NS2EI3 (Q99IB8, residues 1031-1661): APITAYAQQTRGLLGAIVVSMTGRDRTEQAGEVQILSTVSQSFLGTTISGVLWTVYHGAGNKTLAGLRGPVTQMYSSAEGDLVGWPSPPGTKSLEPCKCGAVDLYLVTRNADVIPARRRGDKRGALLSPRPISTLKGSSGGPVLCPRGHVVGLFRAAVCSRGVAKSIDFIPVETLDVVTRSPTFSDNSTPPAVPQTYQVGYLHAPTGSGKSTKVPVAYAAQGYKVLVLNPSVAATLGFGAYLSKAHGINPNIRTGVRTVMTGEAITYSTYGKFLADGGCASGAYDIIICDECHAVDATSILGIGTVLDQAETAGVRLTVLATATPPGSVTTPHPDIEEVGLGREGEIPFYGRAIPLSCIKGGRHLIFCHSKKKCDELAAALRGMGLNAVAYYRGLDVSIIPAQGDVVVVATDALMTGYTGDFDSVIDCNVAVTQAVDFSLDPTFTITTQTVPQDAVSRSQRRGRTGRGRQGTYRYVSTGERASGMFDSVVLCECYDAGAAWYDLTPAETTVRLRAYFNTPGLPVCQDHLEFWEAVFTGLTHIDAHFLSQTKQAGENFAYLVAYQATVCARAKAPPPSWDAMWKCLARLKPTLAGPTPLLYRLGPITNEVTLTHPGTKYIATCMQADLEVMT

This experiment has as its target HAF-NS2 (HCV NS2 of JFH1ad_HAF-NS2EI3, carrying a HA-Flag epitope sequence) (Hepatitis C virus genotype 2a (JFH1)) (UniProt Q99IB8). Nature of the experiment: co-IP; HA-specific immunoprecipitation of HAF-NS2 from lysates of Huh7.5 cells 72 h after transfection with JFH1ad_HAF-NS2EI3 RNA (wild type or NS3 mutant); co-immunoprecipitated NS3 detected by Western blot; genome without HA-Flag tag and mock cells as negative controls. (In general: In western blotting, separated proteins are transferred to a membrane and probed.)

“NS3 (wild type) of JFH1ad_HAF-NS2EI3 (from UniProt Q99IB8 1031-1661)”: the binding result was “binds”.

Source of the values: paper PMC4361677.
